Our source for the Kd values is publication PMC12212138.

Protein sequences, listed by entry. Tags and fused reporters are not part of them. Residues count along the entry.
UniProt Q9UKK3, 1-100: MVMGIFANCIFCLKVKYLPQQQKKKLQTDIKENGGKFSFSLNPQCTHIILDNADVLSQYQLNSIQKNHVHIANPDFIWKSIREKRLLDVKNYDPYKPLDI
UniProt Q9UKK3, 1-573: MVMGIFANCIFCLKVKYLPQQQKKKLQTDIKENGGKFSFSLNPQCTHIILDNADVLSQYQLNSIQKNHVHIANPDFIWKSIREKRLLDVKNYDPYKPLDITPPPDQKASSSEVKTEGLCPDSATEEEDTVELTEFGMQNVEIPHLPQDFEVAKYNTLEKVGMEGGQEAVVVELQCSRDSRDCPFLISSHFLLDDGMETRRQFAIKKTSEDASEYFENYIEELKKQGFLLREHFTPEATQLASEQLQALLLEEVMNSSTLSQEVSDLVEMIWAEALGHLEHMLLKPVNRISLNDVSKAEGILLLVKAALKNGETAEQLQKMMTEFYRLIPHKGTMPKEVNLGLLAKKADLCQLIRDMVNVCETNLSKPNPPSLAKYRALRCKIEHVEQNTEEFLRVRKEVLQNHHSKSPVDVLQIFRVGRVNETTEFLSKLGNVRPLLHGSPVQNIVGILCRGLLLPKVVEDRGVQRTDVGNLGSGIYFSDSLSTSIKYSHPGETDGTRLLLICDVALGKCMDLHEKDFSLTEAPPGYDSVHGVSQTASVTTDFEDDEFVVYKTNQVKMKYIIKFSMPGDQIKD

The exact form of at least one protein or probe is not confirmed.

The target in data set [1] is PARP4 BRCT WT (human) (UniProt Q9UKK3). Nature of the data set: EMSA. As to conditions: 20 nM probe; EMSA: 50 mM Tris pH 7.5, 50 mM NaCl, 4% Ficoll PM400, 0.05% NP40, 2 mM DTT, 0-18 uM protein, room temp 30 min, gel at 4 C; recombinant protein; residues 1-100; protein details: N-terminal His-SUMO removed by TEV; label: 5'-6-FAM; folded or branched DNA. A general note: Mobility shift assays separate free from complexed probe on a gel.

For data set [2] the target is unchanged. Briefly: FP. The conditions noted are these: 3 nM probe; FP: 50 mM Tris pH 7.5, 50 mM NaCl, 1 mM MgCl2, 0.05% NP40, 2 mM DTT, 5% glycerol, 25 ug/ml BSA, room temp 30 min; recombinant protein; residues 1-100; protein details: N-terminal His-SUMO removed by TEV; label: 5'-6-FAM; folded or branched DNA.
Data set [3] deals with PARP4 BRCT-WGR-CAT WT (human) (UniProt Q9UKK3). Briefly: EMSA. The conditions noted are these: 20 nM probe; EMSA: 50 mM Tris pH 7.5, 50 mM NaCl, 4% Ficoll PM400, 0.05% NP40, 2 mM DTT, 0-18 uM protein, room temp 30 min, gel at 4 C; recombinant protein; residues 1-573; protein details: N-terminal His-SUMO removed by TEV; label: 5'-6-FAM on strand 1.

As to “GGCTGGCTTTAGCTCAGCGGTTACTTCGCGTGTCATCAAACCACCTCTCTGGGTTGTTCGAGACCCGCGGGCGCTCTCCAGCCCTCTT [vtDNA1-3]”, the results for the dissociation constant (Kd) with PARP4 BRCT WT (human) [1] and in the data set with PARP4 BRCT WT (human) [2] were 0.5 µM and 10 µM, respectively.
Regarding “GGCUGGCUUUAGCUCAGCGG / CCGCGGGCGCUCUCCAGCCCUCUU [Probe 1]”, in data set [3], the Kd – broadly, a measure of binding affinity in units of concentration – was 11 µM.
